Laboratory results: patent publication US20250025552A1 (published 2025)
Results are given in words; binding and its absence hold for the method and conditions named. In cells and extracts the contact can be indirect. Some results given as binding are weak or reduced against the parent protein; the word gives no strength.

Chains of the proteins cited; added tags and fusions are not shown.
UniProt P22366: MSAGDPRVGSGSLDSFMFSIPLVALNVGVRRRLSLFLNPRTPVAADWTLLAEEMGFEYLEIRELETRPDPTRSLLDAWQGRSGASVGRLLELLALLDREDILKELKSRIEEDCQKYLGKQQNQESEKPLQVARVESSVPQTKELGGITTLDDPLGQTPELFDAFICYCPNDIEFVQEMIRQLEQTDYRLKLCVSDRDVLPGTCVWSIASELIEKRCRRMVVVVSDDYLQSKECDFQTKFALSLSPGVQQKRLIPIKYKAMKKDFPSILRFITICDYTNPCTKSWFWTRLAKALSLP

Target: T1, IRAK4 (mouse) (UniProt Q8R4K2)
T1 sequence (looked up): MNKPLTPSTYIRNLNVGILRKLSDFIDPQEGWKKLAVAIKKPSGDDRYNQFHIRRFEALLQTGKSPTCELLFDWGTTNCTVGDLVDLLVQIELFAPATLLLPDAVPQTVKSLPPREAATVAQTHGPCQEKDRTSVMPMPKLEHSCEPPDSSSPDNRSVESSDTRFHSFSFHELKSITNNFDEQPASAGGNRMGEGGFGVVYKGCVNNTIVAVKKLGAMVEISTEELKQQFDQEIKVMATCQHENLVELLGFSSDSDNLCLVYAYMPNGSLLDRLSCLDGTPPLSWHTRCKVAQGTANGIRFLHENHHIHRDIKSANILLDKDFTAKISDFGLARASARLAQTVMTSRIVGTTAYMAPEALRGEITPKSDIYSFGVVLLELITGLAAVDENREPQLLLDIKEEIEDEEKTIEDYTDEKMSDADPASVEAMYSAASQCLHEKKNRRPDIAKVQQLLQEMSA
Assay: co-immunoprecipitation of IRAK4 with MyD88 from LPS-treated iMΦ lysates, Western analysis

- binding: binds
Substance: MyD88 (from UniProt P22366 1-296)
